Test results published in PubChem BioAssay AID256 (DTP/NCI, 2004).
The list shows only some results of the screen, not a fair sample: it is rich in T/C values a quarter to a half above the control, in often repeated tests (any T/C) and in doses without a T/C. Other doses and runs of a compound stand elsewhere. T/C gives the treated animals as a percentage of the vehicle group. Some doses have a count of surviving animals in place of a T/C: the source holds a T/C of zero for them, seemingly a mark for toxic or unscored doses. Some survivor counts are full or nearly so, which does not show that the dose was tolerated: survival well below the control is almost never listed, so the zero probably covers shortened survival too. Counts of survivors are from the toxicity check (mostly the fifth day) where no day follows; animals may have died later. Schedule codes are those of the source, read here as Q, the interval in days (D) or hours (H), X, the number of doses. Some doses were run more than once; the results are listed from low to high. Where survival is the endpoint, this PubChem deposit counts one and a half times the control or more as active, and values a quarter to a half above the control carry no call in these data; other NCI protocols may use other cut-offs. Some T/C values carry the count of animals alive at the toxicity check (mostly the fifth day); where none is given, no animal had died by that day. Brackets with × give the number of equal values in this list.

Tested on: CD2F1 mice, L1210 leukemia ip, survival T/C
Assay: NCI In Vivo Anticancer Drug Screen. Data for tumor model L1210 Leukemia (intraperitoneal) in CD2F1 (CDF1) mice
Settings: higher T/C = longer survival
Procedure: The antitumor activity of compounds was measured in mice bearing transplantable tumors. Survival or tumor size were measured and the results are expressed as the measurement made in the treated group (T) divided by the measurement made in the vehicle treated control group (C). The tumor model used in this assay is L1210 Leukemia (intraperitoneal) in CD2F1 (CDF1) mice

[1] = T/C endpoint: mean survival time, dose: 400.0 mg/kg/injection, schedule: Q04DX003 (ip), vehicle: saline with Tween-80
[2] = T/C endpoint: mean survival time, dose: 200.0 mg/kg/injection, schedule: Q01DX009 (ip), vehicle: saline with Tween-80
[3] = T/C endpoint: mean survival time, dose: 400.0 mg/kg/injection, schedule: Q01DX009 (ip), vehicle: saline with Tween-80
[4] = T/C endpoint: mean survival time, dose: 200.0 mg/kg/injection, schedule: Q01DX009 (ip), vehicle: other

For `CN(C)CCN1C(=O)c2cccc3cc(N)cc(c23)C1=O`, the T/C (T/C endpoint: mean survival time, dose: 8.0 mg/kg/injection, schedule: Q01DX009 (ip), vehicle: saline with Tween-80) was 125 and 136 % of control, the T/C (T/C endpoint: median survival time, dose: 3.2 mg/kg/injection, schedule: Q01DX009 (ip), vehicle: saline with Tween-80) was 132 % of control and the T/C (T/C endpoint: median survival time, dose: 4.04 mg/kg/injection, schedule: Q03HX024 (ip), vehicle: water) was 127 % of control. The T/C (T/C endpoint: median survival time, dose: 4.7 mg/kg/injection, schedule: Q01DX009 (ip), vehicle: saline with Tween-80) was 128 % of control, the T/C (T/C endpoint: median survival time, dose: 4.7 mg/kg/injection, schedule: Q01DX009 (ip), vehicle: saline) was 128 % of control and the T/C (T/C endpoint: median survival time, dose: 7.0 mg/kg/injection, schedule: Q01DX009 (ip), vehicle: saline with Tween-80, evaluated on day 30) was 133 % of control. The T/C (T/C endpoint: median survival time, dose: 7.0 mg/kg/injection, schedule: Q01DX009 (ip), vehicle: saline with Tween-80, evaluated on day 45) was 135 % of control, the T/C (T/C endpoint: median survival time, dose: 7.1 mg/kg/injection, schedule: Q01DX009 (ip), vehicle: saline) was 139 % of control and the T/C (T/C endpoint: median survival time, dose: 7.1 mg/kg/injection, schedule: Q01DX009 (ip), vehicle: water) was 131 % of control. For the same compound, the T/C (T/C endpoint: median survival time, dose: 8.0 mg/kg/injection, schedule: Q01DX009 (ip), vehicle: acid diluted with saline) was 133 % of control, the T/C (T/C endpoint: median survival time, dose: 8.0 mg/kg/injection, schedule: Q01DX009 (ip), vehicle: saline with Tween-80) was 130 % of control and the T/C (T/C endpoint: median survival time, dose: 8.12 mg/kg/injection, schedule: Q03HX008 (ip), vehicle: water) was 138 % of control [9 of 10 alive]. The T/C (T/C endpoint: median survival time, dose: 10.7 mg/kg/injection, schedule: Q01DX009 (ip), vehicle: saline with Tween-80) was 128 % of control, the T/C (T/C endpoint: median survival time, dose: 10.7 mg/kg/injection, schedule: Q01DX009 (ip), vehicle: water) was 140 % of control and the T/C (T/C endpoint: median survival time, dose: 12.78 mg/kg/injection, schedule: Q01DX005 (ip), vehicle: saline with Tween-80) was 126 % of control. For the same compound, the T/C (T/C endpoint: median survival time, dose: 12.78 mg/kg/injection, schedule: Q01DX005 (ip), vehicle: water) was 144 % of control, the T/C (T/C endpoint: median survival time, dose: 12.96 mg/kg/injection, schedule: Q01DX009 (oral), vehicle: water) was 125 % of control and the T/C (T/C endpoint: median survival time, dose: 14.5 mg/kg/injection, schedule: Q01DX005 (iv), vehicle: saline with Tween-80) was 127 % of control. For the same compound, the T/C (T/C endpoint: median survival time, dose: 14.5 mg/kg/injection, schedule: Q01DX005 (iv), vehicle: water) was 134 % of control, the T/C (T/C endpoint: median survival time, dose: 16.0 mg/kg/injection, schedule: Q01DX009 (ip), vehicle: saline with Tween-80, evaluated on day 30) was 181 and 206 % of control and the T/C (T/C endpoint: median survival time, dose: 16.0 mg/kg/injection, schedule: Q01DX009 (ip), vehicle: saline with Tween-80, evaluated on day 45) was 200 % of control. The T/C (T/C endpoint: median survival time, dose: 16.0 mg/kg/injection, schedule: Q01DX009 (ip), vehicle: saline with Tween-80, evaluated on day 60) was 161 % of control, the survivor count (T/C endpoint: median survival time, dose: 18.1 mg/kg/injection, schedule: Q03HX008 (ip), vehicle: water) was 7 of 10 and the T/C (T/C endpoint: median survival time, dose: 19.3 mg/kg/injection, schedule: Q01DX009 (oral), vehicle: water) was 143 % of control. The T/C (T/C endpoint: median survival time, dose: 21.7 mg/kg/injection, schedule: Q04DX003 (ip), vehicle: water) was 139 % of control, the T/C (T/C endpoint: median survival time, dose: 24.0 mg/kg/injection, schedule: Q01DX009 (ip), vehicle: acid diluted with saline) was 137 % of control and the T/C (T/C endpoint: median survival time, dose: 24.0 mg/kg/injection, schedule: Q01DX009 (ip), vehicle: saline with Tween-80) was 143 % of control. The survivor count (T/C endpoint: median survival time, dose: 27.0 mg/kg/injection, schedule: Q03HX008 (ip), vehicle: water) was 8 of 10, the survivor count (T/C endpoint: median survival time, dose: 32.0 mg/kg/injection, schedule: Q01DX009 (ip), vehicle: acid diluted with saline) was 6 of 6 and the T/C (T/C endpoint: median survival time, dose: 32.5 mg/kg/injection, schedule: Q01DX001 (iv), vehicle: water) was 126 % of control. The T/C (T/C endpoint: median survival time, dose: 36.0 mg/kg/injection, schedule: Q01DX009 (ip), vehicle: saline with Tween-80) was 127 % of control, the T/C (T/C endpoint: median survival time, dose: 42.3 mg/kg/injection, schedule: Q01DX001 (ip), vehicle: water) was 126 % of control and the survivor count (T/C endpoint: median survival time, dose: 43.2 mg/kg/injection, schedule: Q01DX005 (ip), vehicle: water) was 10 of 10. For the same compound, the T/C (T/C endpoint: median survival time, dose: 48.5 mg/kg/injection, schedule: Q01DX001 (iv), vehicle: water) was 131 % of control, the T/C (T/C endpoint: median survival time, dose: 63.9 mg/kg/injection, schedule: Q01DX001 (ip), vehicle: water) was 131 % of control and the survivor count (T/C endpoint: median survival time, dose: 64.3 mg/kg/injection, schedule: Q01DX009 (oral), vehicle: water) was 8 of 10. For the same compound, the T/C (T/C endpoint: median survival time, dose: 72.4 mg/kg/injection, schedule: Q01DX001 (iv), vehicle: water) was 137 % of control [7 of 10 alive], the survivor count (T/C endpoint: median survival time, dose: 96.0 mg/kg/injection, schedule: Q01DX009 (oral), vehicle: water) was 8 of 10 and the T/C (T/C endpoint: median survival time, dose: 96.3 mg/kg/injection, schedule: Q01DX001 (ip), vehicle: water) was 140 % of control. The survivor count (T/C endpoint: median survival time, dose: 108.0 mg/kg/injection, schedule: Q01DX001 (iv), vehicle: water) was 0 of 10, the survivor count (T/C endpoint: median survival time, dose: 144.0 mg/kg/injection, schedule: Q01DX001 (ip), vehicle: water) was 5 of 10 and the survivor count (T/C endpoint: median survival time, dose: 216.0 mg/kg/injection, schedule: Q01DX001 (ip), vehicle: water) was 0 of 10.

For `O=C(C/C(=N\C(=S)Nc1cc(C(F)(F)F)ccc1Cl)NO)N1CCCC1`, the T/C (T/C endpoint: median survival time, dose: 100.0 mg/kg/injection, schedule: Q01DX009 (ip), vehicle: saline with Tween-80) was 125 % of control and the survivor count (T/C endpoint: median survival time, dose: 400.0 mg/kg/injection, schedule: Q01DX009 (ip), vehicle: saline with Tween-80) was 3 of 6 and 5 of 6.

For `Cn1c(=O)[nH]c2nncnc2c1=O`, the survivor count (T/C endpoint: mean survival time, dose: 64.0 mg/kg/injection, schedule: Q01DX009 (ip), vehicle: water) was 3 of 6.

`COc1ccc(-c2cc(C(=O)O)c3cccc(C)c3n2)cc1` was tested, and the survivor count [1] was 0 of 6.

In the case of `COc1cc(/C=C/c2ccccn2)cc(OC)c1OC`, the survivor count [1] is reported as 5 of 6.

In the case of `O=P(=O)OP(=O)=O.[O]=[W](=[O])=[O]`, the survivor count [2] is reported as 3 of 6 and the survivor count [3] is reported as 0 of 6.

For `COC12C(COC(N)=O)C3=C(C(=O)C(C)=C(NC(C)C)C3=O)N1CC1NC12` (centres undefined), the T/C (T/C endpoint: mean survival time, dose: 3.0 mg/kg/injection, schedule: Q01DX001 (ip), vehicle: water) was 96, 98, 108, 147 % of control, the T/C (T/C endpoint: mean survival time, dose: 6.0 mg/kg/injection, schedule: Q01DX001 (ip), vehicle: water) was 100, 102 (2×), 183 % of control and the T/C (T/C endpoint: mean survival time, dose: 12.0 mg/kg/injection, schedule: Q01DX001 (ip), vehicle: water) was 109, 114, 120, 232 % of control. For the same compound, the T/C (T/C endpoint: mean survival time, dose: 24.0 mg/kg/injection, schedule: Q01DX001 (ip), vehicle: water) was 100, 120, 123, 129 % of control and the survivor count (T/C endpoint: mean survival time, dose: 48.0 mg/kg/injection, schedule: Q01DX001 (ip), vehicle: water) was 3 of 6 and 6 of 6.

`CCOC(=O)C(N)CSC(c1ccccc1)(c1ccccc1)c1ccccc1` (centres undefined) was tested, and the T/C (T/C endpoint: mean survival time, dose: 25.0 mg/kg/injection, schedule: Q01DX009 (ip), vehicle: saline) was 130 % of control [5 of 6 alive], the T/C (T/C endpoint: mean survival time, dose: 50.0 mg/kg/injection, schedule: Q01DX009 (ip), vehicle: saline) was 136 % of control and the T/C (T/C endpoint: mean survival time, dose: 100.0 mg/kg/injection, schedule: Q01DX009 (ip), vehicle: saline) was 127 % of control. For the same compound, the survivor count (T/C endpoint: mean survival time, dose: 200.0 mg/kg/injection, schedule: Q01DX009 (ip), vehicle: saline) was 4 of 6 and the survivor count (T/C endpoint: mean survival time, dose: 400.0 mg/kg/injection, schedule: Q01DX009 (ip), vehicle: saline) was 1 of 6.

`c1ccc([O+](c2ccccc2)c2ccccc2)cc1` was tested, and the survivor count (T/C endpoint: mean survival time, dose: 10.0 mg/kg/injection, schedule: Q01DX009 (ip), vehicle: saline with Tween-80) was 1 of 6, the survivor count (T/C endpoint: mean survival time, dose: 20.0 mg/kg/injection, schedule: Q01DX009 (ip), vehicle: saline with Tween-80) was 1 of 6 and the survivor count (T/C endpoint: mean survival time, dose: 100.0 mg/kg/injection, schedule: Q01DX009 (ip), vehicle: saline with Tween-80) was 0 of 6. For the same compound, the survivor count [2] was 0 of 6 and the survivor count [3] was 0 of 6.

For `O=C(NC(=S)Nc1cccc(F)c1)c1cccc(Br)c1`, the T/C (T/C endpoint: mean survival time, dose: 100.0 mg/kg/injection, schedule: Q01DX009 (ip), vehicle: other) was 93, 98, 101, 111 % of control, the T/C [4] was 98 [5 of 6 alive], 107 [4 of 6 alive], 115 % of control and the survivor count [4] was 1 of 3. For the same compound, the survivor count (T/C endpoint: mean survival time, dose: 400.0 mg/kg/injection, schedule: Q01DX001 (ip), vehicle: other) was 0 of 6 and the survivor count (T/C endpoint: mean survival time, dose: 400.0 mg/kg/injection, schedule: Q01DX009 (ip), vehicle: other) was 0 of 3 and 1 of 6.
